Consider 1 compound from US20250302832A1, “PYRAZINE DERIVATIVES AND USES THEREOF” (FOGHORN THERAPEUTICS INC., priority 2022, published 2025).

Amino acid sequences for entries named in this document (tags omitted).
UniProt P51531, whole entry: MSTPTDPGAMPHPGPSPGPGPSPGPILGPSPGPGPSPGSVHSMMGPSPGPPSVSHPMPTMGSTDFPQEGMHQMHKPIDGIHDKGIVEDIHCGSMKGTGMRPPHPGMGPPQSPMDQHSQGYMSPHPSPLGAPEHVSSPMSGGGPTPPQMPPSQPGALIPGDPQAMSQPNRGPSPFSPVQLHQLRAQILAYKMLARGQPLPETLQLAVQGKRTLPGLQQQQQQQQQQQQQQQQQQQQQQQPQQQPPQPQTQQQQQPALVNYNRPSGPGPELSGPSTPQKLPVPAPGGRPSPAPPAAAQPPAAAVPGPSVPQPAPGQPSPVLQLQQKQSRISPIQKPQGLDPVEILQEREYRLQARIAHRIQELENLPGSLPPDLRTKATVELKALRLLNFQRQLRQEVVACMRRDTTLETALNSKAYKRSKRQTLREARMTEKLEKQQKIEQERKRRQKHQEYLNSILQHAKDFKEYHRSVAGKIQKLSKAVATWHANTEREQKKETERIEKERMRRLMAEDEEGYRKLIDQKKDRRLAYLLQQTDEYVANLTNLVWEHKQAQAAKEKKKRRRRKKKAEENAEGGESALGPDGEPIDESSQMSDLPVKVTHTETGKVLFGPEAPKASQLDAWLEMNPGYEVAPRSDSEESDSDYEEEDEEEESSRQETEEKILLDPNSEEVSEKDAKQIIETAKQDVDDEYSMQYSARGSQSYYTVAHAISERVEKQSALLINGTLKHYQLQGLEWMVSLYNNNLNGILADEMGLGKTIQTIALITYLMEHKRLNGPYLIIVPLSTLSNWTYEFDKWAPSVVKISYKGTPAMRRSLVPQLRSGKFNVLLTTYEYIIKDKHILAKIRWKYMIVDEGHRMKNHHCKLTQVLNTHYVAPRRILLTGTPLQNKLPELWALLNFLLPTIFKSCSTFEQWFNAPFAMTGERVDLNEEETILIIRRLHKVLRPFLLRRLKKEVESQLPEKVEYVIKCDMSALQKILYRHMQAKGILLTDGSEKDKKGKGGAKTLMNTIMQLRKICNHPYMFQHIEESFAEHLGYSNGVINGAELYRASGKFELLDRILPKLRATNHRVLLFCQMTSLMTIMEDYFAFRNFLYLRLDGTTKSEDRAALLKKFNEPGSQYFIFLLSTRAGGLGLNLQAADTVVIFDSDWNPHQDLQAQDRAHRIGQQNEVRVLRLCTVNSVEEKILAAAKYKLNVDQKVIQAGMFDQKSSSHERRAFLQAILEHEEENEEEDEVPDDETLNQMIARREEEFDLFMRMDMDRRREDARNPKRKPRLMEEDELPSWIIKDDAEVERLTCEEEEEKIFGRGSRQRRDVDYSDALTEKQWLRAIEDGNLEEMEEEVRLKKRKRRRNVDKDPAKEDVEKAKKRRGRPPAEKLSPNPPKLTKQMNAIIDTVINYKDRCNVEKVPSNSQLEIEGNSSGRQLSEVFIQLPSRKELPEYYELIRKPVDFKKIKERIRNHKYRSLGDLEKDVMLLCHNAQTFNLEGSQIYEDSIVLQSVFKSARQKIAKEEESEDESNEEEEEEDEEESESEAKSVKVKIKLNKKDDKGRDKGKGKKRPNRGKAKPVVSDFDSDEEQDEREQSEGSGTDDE
UniProt P51532, whole entry: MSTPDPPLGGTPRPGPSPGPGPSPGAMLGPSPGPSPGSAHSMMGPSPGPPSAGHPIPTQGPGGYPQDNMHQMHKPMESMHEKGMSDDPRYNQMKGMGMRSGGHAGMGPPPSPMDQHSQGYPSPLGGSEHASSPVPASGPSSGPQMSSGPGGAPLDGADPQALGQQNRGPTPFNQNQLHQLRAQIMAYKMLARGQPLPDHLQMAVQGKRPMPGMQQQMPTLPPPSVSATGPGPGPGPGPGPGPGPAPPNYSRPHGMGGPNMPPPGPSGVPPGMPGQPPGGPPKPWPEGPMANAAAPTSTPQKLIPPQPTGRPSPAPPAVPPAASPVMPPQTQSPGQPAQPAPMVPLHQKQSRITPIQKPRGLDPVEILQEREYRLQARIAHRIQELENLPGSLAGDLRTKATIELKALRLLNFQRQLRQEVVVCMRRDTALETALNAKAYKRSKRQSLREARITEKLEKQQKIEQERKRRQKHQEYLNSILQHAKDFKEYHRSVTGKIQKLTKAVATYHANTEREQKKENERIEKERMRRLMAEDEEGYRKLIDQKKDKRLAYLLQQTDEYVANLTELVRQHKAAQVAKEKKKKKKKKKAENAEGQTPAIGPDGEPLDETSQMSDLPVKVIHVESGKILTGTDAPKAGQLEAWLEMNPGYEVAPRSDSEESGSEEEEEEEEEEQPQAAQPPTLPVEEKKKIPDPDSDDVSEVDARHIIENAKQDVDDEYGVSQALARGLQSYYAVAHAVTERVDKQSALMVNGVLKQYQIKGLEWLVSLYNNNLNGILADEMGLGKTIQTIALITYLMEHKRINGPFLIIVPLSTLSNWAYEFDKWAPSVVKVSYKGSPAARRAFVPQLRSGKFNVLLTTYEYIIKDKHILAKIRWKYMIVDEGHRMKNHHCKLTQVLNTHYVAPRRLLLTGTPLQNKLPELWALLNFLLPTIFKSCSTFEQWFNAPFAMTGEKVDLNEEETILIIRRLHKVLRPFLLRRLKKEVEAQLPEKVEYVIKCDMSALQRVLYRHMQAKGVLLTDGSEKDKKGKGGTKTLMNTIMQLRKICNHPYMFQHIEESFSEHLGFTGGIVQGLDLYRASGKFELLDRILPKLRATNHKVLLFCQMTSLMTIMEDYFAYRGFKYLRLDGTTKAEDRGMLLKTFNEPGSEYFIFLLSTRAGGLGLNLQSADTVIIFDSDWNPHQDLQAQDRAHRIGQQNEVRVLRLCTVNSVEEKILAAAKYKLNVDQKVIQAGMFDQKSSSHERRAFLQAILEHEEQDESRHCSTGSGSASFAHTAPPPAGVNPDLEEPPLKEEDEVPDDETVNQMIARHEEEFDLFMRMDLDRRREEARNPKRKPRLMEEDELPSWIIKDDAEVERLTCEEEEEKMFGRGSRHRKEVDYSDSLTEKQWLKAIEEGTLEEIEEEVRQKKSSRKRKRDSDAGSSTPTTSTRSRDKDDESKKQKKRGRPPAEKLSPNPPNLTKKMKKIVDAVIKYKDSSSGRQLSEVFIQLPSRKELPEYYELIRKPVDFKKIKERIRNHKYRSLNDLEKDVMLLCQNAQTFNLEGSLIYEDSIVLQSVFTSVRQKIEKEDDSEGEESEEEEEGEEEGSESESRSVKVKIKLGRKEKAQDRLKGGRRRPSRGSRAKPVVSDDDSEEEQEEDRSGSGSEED

Molecules are shown by their SMILES. The structures given here were assigned with low confidence; some may be wrong.

One assay deals with HiBit-BRM fusion protein (Homo sapiens, UniProt P51531). Kind of assay: HiBiT-BRM cell-based degradation assay (Nano-Glo HiBiT lytic detection, 24 h). As for the experimental part:
Procedure: A stable HeLa cell line expressing HiBiT-BRM was generated. On day 0, 5000 cells were seeded in 40 μL of media into each well of 384-well cell culture plates. On day 1, cells were treated with 120 nL DMSO or 120 nL of 3-fold serially DMSO-diluted compounds (10 points in duplicate with 30 μM as final top dose). Subsequently plates were incubated for 24 h in a standard tissue culture incubator and equilibrated at room temperature for 15 minutes. Nano-GB HiBiT Lytic Detection System (Promega N3050) reagent was freshly prepared and 20 ul was added to each well. Upon addition of this LgBit-containing reagent, the HiBiT and LgBiT proteins associate to form the luminescent NanoBiT luciferase. The plates were shaken for 10 minutes at room temperature and the bioluminescence read using an EnVision plate reader (PerkinElmer).
The degradation % was calculated using the following formula: % degradation=100%−100%×(Lumsample−LuMLC)/(LuMHC−LuMLC). DMSO treated cells are employed as High Control (HC) and 2 μM of a known BRM/BRG1 degrader standard treated cells are employed as Low Control (LC).

Assay [1] concerns the target HiBit-BRG1 fusion protein (Homo sapiens, UniProt P51532). Nature of the assay: HiBiT-BRG1 cell-based degradation assay (Nano-Glo HiBiT lytic detection, 24 h). For orientation: The HiBiT peptide binds its large partner to form an active luciferase.

The IC50 is the concentration that gives 50% inhibition. `Cc1ncsc1-c1ccc([C@H](C)NC(=O)[C@@H]2C[C@@H](O)CN2C(=O)[C@@H](c2cc(-c3cnc(N4CCC(c5cc6nnc(-c7ccccc7O)cc6[nH]5)CC4)nc3)no2)C(C)C)cc1`: at HiBit-BRM fusion protein (HeLa cell line expressing HiBiT-BRM), the “BRM HiBit Degradation Maximum (%)” value is on record as “A (“A” indicates maximum degradation ≥75%)”. Further, the IC50 on HiBit-BRM fusion protein (read-out: BRM HiBit Degradation IC50, HeLa cell line expressing HiBiT-BRM) is below 10 nM; in assay [1] (read-out: BRMG1 HiBit Degradation IC50, HeLa cell line expressing HiBit-BRG1 and LgBit) it was below 10 nM. Further, the “BRG1 HiBit Degradation Maximum (%)” value in assay [1] (HeLa cell line expressing HiBit-BRG1 and LgBit) is “A (“A” indicates maximum degradation ≥75%)”.
